According to ChEMBL document CHEMBL5036302, “Amphiol, an Antifungal Fungal Pigment from Pseudogymnoascus sp. PF1464” (2021):
Converted amounts (≈) assume the structure as drawn.

Assays:
Aspergillus fumigatus = assay: Antifungal activity against Aspergillus fumigatus assessed as inhibition of fungal growth by CLSI protocol based microbroth dilution method; type: functional
Candida albicans = assay: Antifungal activity against Candida albicans assessed as inhibition of fungal growth by CLSI protocol based microbroth dilution method; type: functional

C[C@@H]1[C@H](O)[C@@H](C)/C=C/C=C/C=C/C=C/C=C/C=C/C=C/[C@H](O[C@@H]2O[C@H](C)[C@@H](O)[C@H](N)[C@@H]2O)C[C@@H]2O[C@](O)(C[C@@H](O)C[C@@H](O)[C@H](O)CC[C@@H](O)C[C@@H](O)CC(=O)O[C@H]1C)C[C@H](O)[C@H]2C(=O)O [AMPHOTERICIN B]
MIC (Aspergillus fumigatus): 2 µg/mL (≈ 2.16 µM) | MIC (Candida albicans): 1 µg/mL (≈ 1.08 µM)
